Test results from article doi:10.1101/2024.01.16.575949.

Key:
Test in all cases: affinity purification with mass spectrometry
Halo-SAP30 = molecular target: T1, Halo-SAP30 (UniProt O75446)
T1 sequence: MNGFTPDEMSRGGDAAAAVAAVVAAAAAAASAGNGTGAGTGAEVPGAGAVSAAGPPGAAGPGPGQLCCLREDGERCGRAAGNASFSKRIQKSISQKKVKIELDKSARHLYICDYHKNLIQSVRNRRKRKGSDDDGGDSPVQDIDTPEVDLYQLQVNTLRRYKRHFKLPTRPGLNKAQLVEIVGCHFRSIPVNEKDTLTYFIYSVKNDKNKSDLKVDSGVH

Halo-ARID4A = molecular target: T2, Halo-ARID4A (UniProt P29374)
T2 sequence: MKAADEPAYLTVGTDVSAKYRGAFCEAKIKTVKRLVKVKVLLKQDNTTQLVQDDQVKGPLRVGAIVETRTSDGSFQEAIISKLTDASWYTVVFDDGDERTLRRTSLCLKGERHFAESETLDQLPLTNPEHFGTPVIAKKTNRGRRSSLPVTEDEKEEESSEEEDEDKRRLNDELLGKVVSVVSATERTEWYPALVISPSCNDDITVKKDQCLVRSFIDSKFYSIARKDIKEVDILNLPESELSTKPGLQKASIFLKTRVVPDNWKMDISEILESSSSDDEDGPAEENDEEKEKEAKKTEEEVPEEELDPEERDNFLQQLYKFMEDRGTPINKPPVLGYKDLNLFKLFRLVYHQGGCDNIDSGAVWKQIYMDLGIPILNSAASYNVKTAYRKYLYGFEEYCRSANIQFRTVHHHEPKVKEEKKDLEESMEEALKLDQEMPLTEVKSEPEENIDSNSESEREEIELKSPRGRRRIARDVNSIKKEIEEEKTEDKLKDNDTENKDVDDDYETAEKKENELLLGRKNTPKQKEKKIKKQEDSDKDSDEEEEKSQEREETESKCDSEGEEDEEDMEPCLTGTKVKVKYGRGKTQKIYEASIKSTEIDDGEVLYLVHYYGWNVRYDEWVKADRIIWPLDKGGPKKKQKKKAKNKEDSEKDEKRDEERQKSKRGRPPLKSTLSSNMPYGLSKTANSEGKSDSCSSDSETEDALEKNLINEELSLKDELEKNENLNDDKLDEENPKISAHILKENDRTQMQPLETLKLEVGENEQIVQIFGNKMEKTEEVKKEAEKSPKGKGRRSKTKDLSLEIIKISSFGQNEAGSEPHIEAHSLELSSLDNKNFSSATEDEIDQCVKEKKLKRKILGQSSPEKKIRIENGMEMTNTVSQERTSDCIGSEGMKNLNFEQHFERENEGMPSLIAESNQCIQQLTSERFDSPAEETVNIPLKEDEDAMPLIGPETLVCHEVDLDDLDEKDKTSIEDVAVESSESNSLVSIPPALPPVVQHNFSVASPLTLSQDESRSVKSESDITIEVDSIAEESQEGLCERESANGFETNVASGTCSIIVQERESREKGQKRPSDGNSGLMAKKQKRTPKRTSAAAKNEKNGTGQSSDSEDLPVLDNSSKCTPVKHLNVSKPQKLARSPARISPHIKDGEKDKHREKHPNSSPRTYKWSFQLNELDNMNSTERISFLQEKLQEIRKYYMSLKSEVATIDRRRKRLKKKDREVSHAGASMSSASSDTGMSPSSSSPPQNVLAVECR

Halo-SUDS3 = molecular target: T3, Halo-SUDS3 (UniProt Q9H7L9)
T3 sequence: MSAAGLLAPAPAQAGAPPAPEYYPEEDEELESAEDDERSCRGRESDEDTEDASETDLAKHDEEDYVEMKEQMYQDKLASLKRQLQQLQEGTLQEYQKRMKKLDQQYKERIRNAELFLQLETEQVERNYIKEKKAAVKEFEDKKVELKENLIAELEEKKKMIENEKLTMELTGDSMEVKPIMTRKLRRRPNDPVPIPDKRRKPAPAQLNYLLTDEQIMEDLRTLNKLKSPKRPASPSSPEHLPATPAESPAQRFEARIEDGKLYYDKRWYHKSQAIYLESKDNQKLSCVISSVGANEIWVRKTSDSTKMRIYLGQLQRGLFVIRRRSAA

Halo-SIN3A_Δ7_968-1186 = molecular target: Halo-SIN3A_Δ7_968-1186

binding (Halo-SAP30): binds
binding (Halo-ARID4A): no binding
binding (Halo-SUDS3): binds
binding (Halo-SIN3A_Δ7_968-1186): no binding
B1: endogenous FAM60A (protein, UniProt Q9NP50 1-221)
chain: MFGFHKPKMYRSIEGCCICRAKSSSSRFTDSKRYEKDFQSCFGLHETRSGDICNACVLLVKRWKKLPAGSKKNWNHVVDARAGPSLKTTLKPKKVKTLSGNRIKSNQISKLQKEFKRHNSDAHSTTSSASPAQSPCYSNQSDDGSDTEMASGSNRTPVFSFLDLTYWKRQKICCGIIYKGRFGEVLIDTHLFKPCCSNKKAAAEKPEEQGPEPLPISTQEW

No constants are given. Whether binding was seen depends on the method and setting. Binding seen in cells or lysates may run through a third protein. These calls come from enrichment with a bait or labelling near it, and not all partners need be listed. For some of these results: A no says only that the protein was not detected with the bait.
